Experimental data taken from PMC7562919.
Results are given in words; binding and its absence hold for the method and conditions named. In cells and extracts the contact can be indirect. A yes stands for co-enrichment or nearness to the bait. Other partners may have been found. Sequences can lack the tags named with a protein. Each block holds one binder with its values, some of them ahead of it.

Columns and labels:
[1] = molecular target: T1, DN-SUSA2-FLAG (Arabidopsis thaliana) (UniProt Q9FKT0); test: proximity labelling; TurboID fusion co-expressed with the FLAG-tagged partner in N. benthamiana leaves, 48 h; FLAG immunoprecipitation, biotinylated proteins detected with Streptavidin-HRP on western blot
T1 sequence: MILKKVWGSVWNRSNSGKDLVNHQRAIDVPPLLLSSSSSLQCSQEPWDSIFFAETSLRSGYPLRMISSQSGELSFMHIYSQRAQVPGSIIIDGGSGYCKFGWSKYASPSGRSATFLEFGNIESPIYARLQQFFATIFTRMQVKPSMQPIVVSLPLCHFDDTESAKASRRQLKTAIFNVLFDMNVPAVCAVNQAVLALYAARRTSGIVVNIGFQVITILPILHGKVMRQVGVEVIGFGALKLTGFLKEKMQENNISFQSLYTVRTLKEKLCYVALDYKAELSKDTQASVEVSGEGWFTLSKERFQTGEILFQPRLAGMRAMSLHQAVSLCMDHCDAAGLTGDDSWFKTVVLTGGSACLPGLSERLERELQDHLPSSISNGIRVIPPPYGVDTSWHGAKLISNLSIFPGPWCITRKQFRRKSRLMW

[2] = molecular target: HA-FLAG-SOC3 (Arabidopsis thaliana) (UniProt F4I901); test: as above

binding [1]: binds
B1: CHS1-Turbo-HA (protein, UniProt F4I902 1-420)
chain: MSTSYSFLLAGRELDVFLSFSGKIALDVDFGYDLSRNGIKAFKSESWKESSFKPIDLRTLEALTESKVAVVMTSDEEVSSVGFLEELIVIIEFQEKRSLTVIPVFLTKHPLDVEKVSQIFPERAKIWRTAIAKLDNIAAQYSFSRNLAVMHGTHRIKQIADDIRLMFLSSASSDFKGLAGMDRHMKALYALLALESDEKVRTIGIWGSSGVGKTTLARYTYAEISVKFQAHVFLENVENMKEMLLPSENFEGEDLRSVNHEMNEMAEAKQKHRKVLLIADGVNNIEQGKWIAENANWFAPGSRVILITQEKSLLVQSGVNHVYEVGSLRYDEALQLFSRFAFKQPYPSPDFERLSVRAVQLAGFLPVTIRLFGSFLTGRDKEEWEATLLKLNAKQGKDIKEVWKIMEALEDKDIVEASQR

binding [2]: binds
B2: DN-SUSA2-Turbo-HA (protein, UniProt Q9FKT0)
chain: T1 sequence
